Measurements taken from paper PMC11220018.
These are yes or no findings as the source states them, for the method shown. Binding seen in cells or lysates may run through a third protein. Here binding means that the protein was enriched with, or labelled near, the bait; the list need not be complete.

Chains of the proteins cited; added tags and fusions are not shown. Lines headed by an entry give the natural chain unless they say otherwise; changes in a name come on top.
UniProt P05556: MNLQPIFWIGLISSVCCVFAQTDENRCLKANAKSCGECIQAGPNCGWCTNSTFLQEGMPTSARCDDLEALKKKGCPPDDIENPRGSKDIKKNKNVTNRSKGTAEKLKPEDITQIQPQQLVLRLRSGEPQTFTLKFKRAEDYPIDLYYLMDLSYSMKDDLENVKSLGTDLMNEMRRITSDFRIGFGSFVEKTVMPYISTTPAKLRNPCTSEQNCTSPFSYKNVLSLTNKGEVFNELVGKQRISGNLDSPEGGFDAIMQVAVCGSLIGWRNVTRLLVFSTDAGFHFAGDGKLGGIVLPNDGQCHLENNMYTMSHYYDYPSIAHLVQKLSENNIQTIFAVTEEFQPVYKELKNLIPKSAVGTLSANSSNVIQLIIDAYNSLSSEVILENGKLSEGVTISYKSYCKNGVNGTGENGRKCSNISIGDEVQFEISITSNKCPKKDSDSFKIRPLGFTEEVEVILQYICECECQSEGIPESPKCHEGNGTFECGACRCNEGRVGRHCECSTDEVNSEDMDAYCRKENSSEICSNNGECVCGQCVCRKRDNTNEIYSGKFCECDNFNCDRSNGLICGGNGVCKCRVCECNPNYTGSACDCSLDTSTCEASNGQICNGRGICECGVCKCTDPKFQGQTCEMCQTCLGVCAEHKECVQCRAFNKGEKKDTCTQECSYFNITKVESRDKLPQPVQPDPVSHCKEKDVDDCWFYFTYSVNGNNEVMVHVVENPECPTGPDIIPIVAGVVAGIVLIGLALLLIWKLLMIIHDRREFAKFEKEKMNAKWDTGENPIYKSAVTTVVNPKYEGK

Target: NRP1 (UniProt O14786)
Experiment: affinity purification with mass spectrometry; Sema3C and NRP1 overexpressed in Huh7 cells; co-immunoprecipitation (anti-Flag or anti-HA, rProtein A/G magnetic beads), gel bands digested with trypsin, Q Exactive HF-X

- binding: binds
Substance: ITGB1 (from UniProt P05556 21-798) (receptor)
